# Test results taken from PubChem BioAssay AID504444 (National Center for Advancing Translational Sciences (NCATS), 2011).
# The campaign covered roughly 360,000 compounds. About 7,500 (2.1%) were called active. This list was built around the results that the source calls inconclusive (neither active nor inactive); the mix of calls is not that of the screen. Calls come from the whole dose curve; as a rule, active = well fitted inhibition curve with a large enough effect; inconclusive = small, poorly fitted or top-dose-only effect, or effect the other way; inactive = flat fitted curve, though single readings scatter. Potencies of inconclusive entries are doubtful fits and often do not repeat.
# Assay: Nrf2 qHTS screen for inhibitors; note: nearly all actives have a fitted effect of over 60% in size
# Conditions: A549 ARE-Fluc reporter, luciferase luminescence, 18-24 h; activity change, negative = inhibition: at 46 µM (top of the series)
# In short: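 Concentration-response testing used A549 ARE_Fluc cells at 5000 cells/well. Following an 18-24 h compound incubation, viability was read by fluorescence (Ex 405/Em 525) and luciferase output by luminescence.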
# % is set by controls: 0 for no effect and ±100 for the full control effect; potency is the fitted concentration of half-maximal effect.
SMILES,Potency,"activity change, negative = inhibition"
CC(C)c1ccc(/C=C/C(=O)CCC(=O)O)cc1,"inconclusive: 2.91 µM [activator, full curve]",
COc1ccc(OCCOC(=O)c2[nH]c(C)c(C(C)=O)c2C)cc1,"inconclusive: 5.17 µM [falling, single point]",
COc1ccccc1-c1cc(C(F)(F)F)nc(N2CCOCC2)n1,"inconclusive: 29.1 µM [falling, single point]",
C=C[C@]1(C)C=C2CCC3[C@](C)(CCC[C@@]3(C)C(=O)O)C2CC1 (stereo not given in full),"inconclusive: 16.4 µM [falling, partial curve, poor fit]",
Cc1ccc(/C(O)=C2\C(=O)C(=O)N(CC(C)O)C2c2cccc(F)c2)cc1 (stereo not given),,inactive: 0.788%
O=C(CN1C2CCC1CC(NC(=O)NC1CCCCC1)C2)NC1CC1 (stereo not given),,inactive: 6.69%
CCn1c2ccccc2c2cc(NC(=O)C(C)OC(=O)c3ccc(NC(=O)CC#N)cc3)ccc21 (stereo not given),"inconclusive: 20.6 µM [falling, single point]",
C(#Cc1ccccc1)C[N+]1(CC#Cc2cccc3ccccc23)CCCC1,"inconclusive: 32.6 µM [falling, single point]",
Cc1ccc(NC(=O)CCN2CCN(C/C=C/c3ccccc3)CC2)cc1,,inactive: 3.06%
CN(c1ncnc(N)c1[N+](=O)[O-])C1CCCCC1,"inconclusive: 25.9 µM [falling, partial curve, poor fit]",
CC(C)(C)OC(=O)NNc1c2ccccc2nc2ccccc12,active: 23.1 µM,
COc1ccc2cc(CCNC(=O)c3cccc([N+](=O)[O-])c3)c(=O)[nH]c2c1,"inconclusive: 18.4 µM [falling, partial curve, poor fit]",
CN1CCN(C(=O)c2ccccc2NC(=O)c2ccc(C(C)(C)C)cc2)CC1,"inconclusive: 2.91 µM [activator, partial curve]",
N/C(=N\OC(=O)Cc1cccc2ccccc12)c1ccccn1,"inconclusive: 23.1 µM [activator, single point]",
CC(Cl)OC(=O)Nc1cccc2cccnc12 (stereo not given),,inactive: 0.191%
O=C(CSc1nnc(-c2ccco2)o1)N1CCOCC1,"inconclusive: 25.9 µM [activator, single point]",
CCCC(=O)N(c1ccc2oc3c(c2c1)CCCC3)S(=O)(=O)c1ccc(CC)cc1,"inconclusive: 23.1 µM [falling, partial curve, poor fit]",
Cc1nc(Nc2ccc(S(N)(=O)=O)cc2)sc1C(=O)Nc1ccccc1,,inactive: 2.11%
COc1ccc2nc(NC(=O)c3ccc(-n4nc(C)cc4C)cc3)sc2c1,,inactive: -7.99%
COc1ccc(OC)c(/C=C/C(=O)N2CCCc3ccccc32)c1,"inconclusive: 32.6 µM [falling, partial curve, poor fit]",
O=C(NCCS(=O)(=O)N1CCN(c2ccccc2F)CC1)c1cc(=O)c2ccccc2o1,"inconclusive: 1.16 µM [falling, partial curve]",
CC1Cc2ccccc2N1C(=O)c1ccc(Br)o1 (stereo not given),"inconclusive: 18.4 µM [activator, single point]",

SMILES,Potency,"activity change, negative = inhibition"
COc1cc(NS(=O)(=O)c2ccc(NC(=O)CCC(=O)O)cc2)nc(OC)n1,"inconclusive: 14.6 µM [activator, partial curve]",
Cc1cccc2c(N=NC(=O)c3ccc(NS(=O)(=O)c4cccs4)cc3)c(O)[nH]c12,"inconclusive: 20.6 µM [falling, single point]",
O=C(Nc1ccc(F)cc1)c1ccc(-n2cnc3cccnc32)cc1,"inconclusive: 1.84 µM [falling, full curve]",
COc1ccc(-c2nnc(SCc3cccnc3)o2)cc1,"inconclusive: 3.66 µM [activator, partial curve, poor fit]",
C=CCSc1nnc(NC(=O)C2CC(=O)N(c3ccc4c(c3)OCCO4)C2)s1 (stereo not given),"inconclusive: 7.31 µM [falling, partial curve, poor fit]",
Cc1ccc2c(c1)c1c(n2C)-c2[nH]ncc2CC1,,inactive: -28%
COc1ccc(CC(=O)NCc2ccc3c(c2)cc(C)n3C)cc1,"inconclusive: 23.1 µM [falling, partial curve, poor fit]",
O=c1c2ccccc2nc(COc2ccccc2)n1/N=C/c1ccc(O)cc1O,active: 25.9 µM,
Cc1ccc(-c2nnc(SCC(N)=O)nc2-c2ccc(C)cc2)cc1,"inconclusive: 25.9 µM [falling, partial curve, poor fit]",
O=C(OCc1ccccc1)c1cc(S(=O)(=O)N2CCCCC2)ccc1N1CCOCC1,"inconclusive: 7.31 µM [falling, full curve, poor fit]",
Cc1ccc(Cn2c(C(C)Nc3nc(-c4ccc(Cl)cc4)cs3)nc3cc(C(=O)NCCCO)ccc32)cc1 (stereo not given),"inconclusive: 29.1 µM [falling, single point]",
Cc1onc(-c2ccccc2)c1C(=O)c1c[nH]c(C(=O)NCc2ccccn2)c1,"inconclusive: 14.6 µM [falling, partial curve, poor fit]",
O=C(NCCCn1ccnc1)/C(=C\c1cccnc1)NC(=O)c1ccco1,"inconclusive: 29.1 µM [activator, single point]",
CNC(=O)C1CCC(Cn2c(=O)c3sccc3n(Cc3ccccc3)c2=O)CC1 (stereo not given),"inconclusive: 0.146 µM [activator, full curve, poor fit]",
O=C(NC(=S)NCCc1ccccc1)c1ccccc1F,"inconclusive: 7.31 µM [activator, partial curve]",
NC(=S)N/N=C1/CCSc2ccc3ccccc3c21,"inconclusive: 20.6 µM [falling, partial curve]",
COc1cc(OC)c(NC(=O)C(C)n2c(=O)cc(-c3ccccc3)c3c(C)nn(C)c32)cc1Cl (stereo not given),"inconclusive: 29.1 µM [falling, single point]",
CCOc1ccc(-c2nc(Cn3c(=O)cc(-c4ccccc4)c4c(C)nn(C)c43)c(C)o2)cc1OC,"inconclusive: 10.3 µM [activator, partial curve]",
Cc1ccc(-c2csc(NC(=O)CSC3=NCCS3)n2)cc1,"inconclusive: 7.31 µM [activator, partial curve, poor fit]",
COc1ccc2c(c1)Cc1sc(NC(=O)c3ccccc3)nc1-2,"inconclusive: 32.6 µM [falling, single point]",
Cc1ccc(CNC(=O)C2CCN(c3nn4cc(-c5ccc(F)cc5)nc4s3)CC2)cc1,,inconclusive: 66.6% [activator]
Cc1ccc(NC(=O)c2cc(F)c(F)cc2Cl)nc1,"inconclusive: 3.66 µM [activator, full curve]",

# Quoted from the listing.
# O=C(NC(=S)NCCc1ccccc1)c1ccccc1F – Potency: inconclusive: 7.31 µM [activator, partial curve]
# Cc1ccc(NC(=O)c2cc(F)c(F)cc2Cl)nc1 – Potency: inconclusive: 3.66 µM [activator, full curve]
# Cc1ccc(-c2nnc(SCC(N)=O)nc2-c2ccc(C)cc2)cc1 – Potency: inconclusive: 25.9 µM [falling, partial curve, poor fit]
# Cc1ccc(-c2csc(NC(=O)CSC3=NCCS3)n2)cc1 – Potency: inconclusive: 7.31 µM [activator, partial curve, poor fit]

# The list goes on:

SMILES,Potency,"activity change, negative = inhibition"
CCCCCC(=O)Nc1ccc(C(=O)CN2C(=O)NC3(CCCCCC3)C2=O)cc1,,inactive: -11.3%
Fc1ccccc1/C=N/Nc1ncnc2ccccc12,"inconclusive: 10.3 µM [activator, partial curve]",
Cc1csc(NC(=O)c2nc(-c3ccccc3)n(-c3ccccc3)n2)n1,,inactive: 11.2%
O=C(Nc1c2c(nn1-c1ccccc1)CS(=O)C2)c1ccc2c(c1)OCO2 (stereo not given),"inconclusive: 20.6 µM [activator, single point]",
COc1ccccc1NC(=O)c1ccc(NC(=O)c2nc3nccc(C)n3n2)cc1,"inconclusive: 10.3 µM [falling, partial curve]",
CCOC(=O)C1=NN(c2ccc(C)cc2)C2(S1)SC(C(C)=O)=C(C)N2c1ccccc1 (stereo not given),"inconclusive: 0.326 µM [falling, partial curve, poor fit]",
Cc1ccc(C(=O)N/N=C\c2ccc([N+](=O)[O-])o2)cn1,"inconclusive: 29.1 µM [falling, partial curve, poor fit]",
CCc1ccc(S(=O)(=O)/N=C2\C=C(Nc3ccc(O)cc3)C(=O)c3ccccc32)cc1,active: 8.2 µM,
CCOC(=O)c1ccc(NC(=O)c2nc[nH]c2C(=O)N[C@@H](CC(C)C)C(=O)OC(C)(C)C)cc1,"inconclusive: 5.8 µM [falling, full curve]",
c1ccc(CN2C3=NCCN3c3ccccc32)cc1,,inactive: 1.69%
CC(C)(CCl)C(=O)Nc1ccc(Sc2ccc(F)cc2)cc1,"inconclusive: 29.1 µM [falling, single point]",
CCCNCc1nnc(-c2ccccc2Cl)o1,"inconclusive: 9.2 µM [activator, partial curve]",
S=C(NC1CCCCC1)N1CCN(C/C=C/c2ccccc2)CC1,"inconclusive: 29.1 µM [falling, single point]",
C(=NN=C(NN=Cc1cccs1)NN=Cc1cccs1)c1cccs1,"inconclusive: 25.9 µM [falling, partial curve, poor fit]",
COc1ccc(C(CNC(=O)c2cccc(S(=O)(=O)Nc3ccc(F)cc3)c2)N2CCCCC2)cc1 (stereo not given),,inactive: -3.73%
O=C(CCCn1cnc([N+](=O)[O-])n1)Nc1cccc(O)c1,"inconclusive: 20.6 µM [activator, single point]",
CCn1c(Oc2ccc(F)cc2F)nc2c1c(=O)n(C)c(=O)n2C,"inconclusive: 0.291 µM [falling, full curve]",
CCN(C[C@H]1N[C@@](Cc2ccccc2)(C(=O)OC)[C@H]2C(=O)N(Cc3ccccc3)C(=O)[C@@H]12)C(=O)c1ccc(C)cc1,,inactive: -0.16%
Cc1cccc(S(=O)(=O)c2cn(Cc3ccccc3)c3cc(N4CCC(C)CC4)c(F)cc3c2=O)c1,,inactive: 13.2%
COc1ccccc1CN(C)C(=O)c1cccc(S(=O)(=O)N2CCN(Cc3ccccc3)CC2)c1,,inactive: -12.3%
CCCCOc1ccc(C(=O)NCC2(c3ccccc3)CCOCC2)cc1,"inconclusive: 16.4 µM [falling, single point]",
